Results from publication PMC3762725.
Changes are numbered by the printed parent chain. No constants are given. Whether binding was seen depends on the method and setting. For some of these results: In cells and extracts the contact can be indirect. Some entries that bind do so weakly or less than the wild type. For some of these results: Tags and fused reporters may be left off the sequences shown.

The chains behind the UniProt entries cited, without tags or fusion partners. Where a name states a change or a piece, a line headed by the entry shows the natural chain unless it says otherwise.
UniProt Q9UHI6: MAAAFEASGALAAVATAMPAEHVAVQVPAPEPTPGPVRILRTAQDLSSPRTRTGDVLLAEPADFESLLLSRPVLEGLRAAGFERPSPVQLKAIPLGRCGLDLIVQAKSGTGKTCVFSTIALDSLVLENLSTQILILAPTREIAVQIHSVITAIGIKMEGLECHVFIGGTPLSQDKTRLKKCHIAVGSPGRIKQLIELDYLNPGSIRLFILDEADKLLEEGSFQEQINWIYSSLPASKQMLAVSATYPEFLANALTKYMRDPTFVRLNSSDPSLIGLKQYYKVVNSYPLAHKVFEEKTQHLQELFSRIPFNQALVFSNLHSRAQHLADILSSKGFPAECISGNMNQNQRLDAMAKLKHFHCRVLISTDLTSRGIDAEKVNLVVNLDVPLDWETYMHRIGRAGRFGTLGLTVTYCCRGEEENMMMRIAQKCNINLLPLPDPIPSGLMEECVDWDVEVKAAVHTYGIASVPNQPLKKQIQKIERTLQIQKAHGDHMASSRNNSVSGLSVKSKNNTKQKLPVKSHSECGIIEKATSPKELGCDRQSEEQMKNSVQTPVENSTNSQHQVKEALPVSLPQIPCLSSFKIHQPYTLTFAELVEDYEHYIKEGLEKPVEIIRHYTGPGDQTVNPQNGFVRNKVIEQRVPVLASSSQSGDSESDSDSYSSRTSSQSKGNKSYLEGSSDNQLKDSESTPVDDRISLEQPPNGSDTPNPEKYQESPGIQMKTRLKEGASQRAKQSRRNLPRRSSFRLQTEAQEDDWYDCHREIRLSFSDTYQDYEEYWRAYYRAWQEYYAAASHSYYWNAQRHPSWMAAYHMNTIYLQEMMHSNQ

Columns and labels:
[1] = biological target: T1, αB-crystallin-LexA fusion protein (wild-type αB-crystallin) (human) (UniProt P02511); assay: two-hybrid; yeast two-hybrid screen; αB-crystallin-LexA fusion as bait, cDNA library from HeLa cells as preys; data not shown
T1 sequence: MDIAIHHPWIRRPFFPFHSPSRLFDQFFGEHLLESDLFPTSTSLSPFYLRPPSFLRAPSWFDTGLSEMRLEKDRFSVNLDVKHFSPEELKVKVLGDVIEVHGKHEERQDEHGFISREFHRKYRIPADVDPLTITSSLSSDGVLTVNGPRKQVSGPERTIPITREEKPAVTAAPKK

[2] = biological target: T2, non-phosphorylatable αB-crystallin (αB-STA) (human) (UniProt P02511); assay: co-IP; lysates of transfected HeLa cells (50 mM Tris-HCl pH 7.5, 100 mM NaCl, 0.5% Nonidet P-40, 4°C); precipitated with monoclonal antibody to αB-crystallin on protein G-agarose; blot for Gemin3
T2 sequence: T1 sequence with S19A, S45A, S59A

[3] = biological target: T3, pseudophosphorylated αB-crystallin (αB-STD) (human) (UniProt P02511); assay: as above
T3 sequence: T1 sequence with S19D, S45D, S59D

[4] = biological target: T4, wild-type αB-crystallin (human) (UniProt P02511); assay: as above
T4 sequence: T1 sequence

| binding [1] | binding [2] | binding [3] | binding [4] | Substance |
| --- | --- | --- | --- | --- |
| binds |  |  |  | C-terminal 246 residues of Gemin3 (from UniProt Q9UHI6 579-824) (domain or fragment) |
|  | binds | binds | binds | Gemin3 (from UniProt Q9UHI6 1-824) |
